Test results taken from PubChem BioAssay AID504444 (National Center for Advancing Translational Sciences (NCATS), 2011).
Screen size: about 360,000 compounds; about 7,500 (2.1%) were called active. Inconclusive results, whose numbers are uncertain, are shown with a selection of clear calls. Calls follow the shape of the dose curve; as a rule, active = well fitted inhibition curve with a large enough effect; inconclusive = small, poorly fitted or top-dose-only effect, or effect the other way; inactive = flat fitted curve, though single readings scatter. Potencies of inconclusive entries are doubtful fits and often do not repeat.

experiment: Nrf2 qHTS screen for inhibitors; settings: A549 ARE-Fluc reporter, luciferase luminescence, 18-24 h; activity change, negative = inhibition: at 46 µM (top of the series); also: nearly all actives have a fitted effect of over 60% in size
Procedure, shortened: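 Quantitative HTS in A549 cells stably bearing an antioxidant response element-firefly luciferase construct. Inhibition of Nrf2-driven transcription was scored by luminescence after 18-24 h of compound exposure at 37 °C.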
% is scaled to controls: 0 for no effect and ±100 for the full control effect; potency is read from the fitted curve at half-maximal effect.

SMILES | Potency | activity change, negative = inhibition
CC(C)C(=O)Nc1nc2c(s1)CC(C(C)(C)C)CC2 (stereo not drawn) | inconclusive: 14.6 µM [activator, partial curve, poor fit] | 
CC(c1ccncn1)N(C)C(=O)c1ccc2oc(Cc3ccccc3)nc2c1 (stereo not drawn) | inconclusive: 13 µM [activator, partial curve] | 
Cc1cc(NCCc2ccc(Cl)cc2)n2ncnc2n1 | inconclusive: 16.4 µM [falling, partial curve, poor fit] | 
Cc1ccc(O)c(C2=Nc3ccccc3N=C(c3cccc([N+](=O)[O-])c3)C2)c1 | inconclusive: 7.31 µM [activator, partial curve] | 
O=C(NCC(c1ccco1)N1CCc2ccccc2C1)c1cccc(F)c1 (stereo not drawn) | inconclusive: 29.1 µM [falling, single point] | 
Nc1ccc(NC(=O)NC2CCCCC2)cc1 | inconclusive: 23.1 µM [activator, partial curve] | 
COc1ccc(NC(=O)C2CCCN(c3c4c(nc5ncnn35)CCC4)C2)cc1 (stereo not drawn) | inconclusive: 25.9 µM [falling, partial curve, poor fit] | 
O=S(=O)(c1ccc(Cl)s1)N1CCN(C/C=C/c2ccccc2)CC1 | active: 10.3 µM | 
Cc1ccc(C)c(CSc2nnc(C)n3c2cc2sccc23)c1 | active: 25.9 µM | 
C#CCn1c(=O)n(-c2cccc(Cl)c2C)c(=O)c2c3c(sc21)CN(C(C)=O)CC3 |  | inactive: -13.7%
CCCCP(=O)(CCCC)CCP(=O)(c1ccccc1)c1ccccc1 | inconclusive: 2.06 µM [activator, full curve, poor fit] | 
C/C(CC(C)(C)C1CCCCC1)=N\NC(N)=S | inconclusive: 29.1 µM [falling, single point] | 
Cc1ccc(C)c(N2CCN(CCCNC(=O)c3cnn(-c4ccc(F)cc4)c3C3CCN(C(=O)OC(C)(C)C)CC3)CC2)c1 | inconclusive: 29.1 µM [falling, single point] | 
Cc1ccc(OCC(=O)N(Cc2ccccc2)c2c(N)n(Cc3ccccc3)c(=O)[nH]c2=O)c(C)c1 | inconclusive: 16.4 µM [falling, partial curve, poor fit] | 
Cc1ccc(C(=O)c2cccc(N)c2)cc1C | active: 5.8 µM | 
O=C(NC(=S)Nc1ccc2c(c1)OCO2)c1ccccc1 | inconclusive: 3.26 µM [activator, full curve] | 
CC1(C)Oc2ccc3ccc(=O)oc3c2C[C@H]1O[C@@H]1O[C@H](CO)[C@@H](O)[C@H](O)[C@H]1O |  | inactive: -1.69%
C=CCNC(=S)NC(=O)c1oc2ccccc2c1C | inconclusive: 2.31 µM [activator, full curve, poor fit] | 

3 structures from above, sorted by length of the SMILES, low to high:
SMILES | Potency | activity change, negative = inhibition
Nc1ccc(NC(=O)NC2CCCCC2)cc1 | inconclusive: 23.1 µM [activator, partial curve] | 
C/C(CC(C)(C)C1CCCCC1)=N\NC(N)=S | inconclusive: 29.1 µM [falling, single point] | 
CCCCP(=O)(CCCC)CCP(=O)(c1ccccc1)c1ccccc1 | inconclusive: 2.06 µM [activator, full curve, poor fit] | 
